Reference: patent US20160108117A1 (UNIVERSITE DE NICE SOPHIA ANTIPOLIS, published 2016)
Results are given in words; binding and its absence hold for the method and conditions named. Some entries that bind do so weakly or less than the wild type. Blank lines part the entries; values can stand above or below the binder they belong to.

Biological target: T1, human chemokine CXCL8 (human, UniProt P10145 28-99, limits assumed)
T1 construct: also called IL8; IL-8
T1 sequence (looked up): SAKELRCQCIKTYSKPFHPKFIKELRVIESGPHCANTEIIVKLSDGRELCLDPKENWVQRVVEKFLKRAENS
Assay: SPR (Biacore 3000), antibody captured, cytokine as analyte, 25 C

binding: binds
B1: monoclonal rat IgG antibody produced by the hybridoma 12A10-13 (CNCM I-4617) (antibody, V domains shown)
VH: QVQLQQSGAELAKPGSSVKISCKASGYTFTSYYISWIKQTTGQGLEYIGYINTGSGGTNYNEKFKGKATLTVDKSSSTAFMQLSSLTPDDSAVYYCASPSGGFDYWGQGVMVTVSS
VL: EIVLTQSPTTMAASPGEKVTITCRASSSVSYMHWYQQKPGASPKPWIYDTSKLASGVPNRFSGSGSGTSYSLTISSMETEDTATYYCQQWSSNSLTFGSGTKLEIK
notes: also called Mc12A10-13

binding: binds
B2: monoclonal rat IgG antibody produced by the hybridoma 35B11-8 (CNCM I-4618) (antibody, V domains shown)
VH: EVQLVESGGGLVQPGRSLKLSCVASGFTFNNYWMTWIRQAPGKGLEWVASISKTGSNPYYPDSVKGRFTISRDNAKNTLYLQMNSLRSEDTATYYCARDGTTPLDYWGQGVMVTVSS
VL: DIQMTQSPPSLSASLGDKVTITCQASQNINKYIAWYQQKPGKAPGLLIHYTSTLVSGIPSRFSGSGSGRVYSFSISNVESEDIASYYCLQYDNSPFPFGAGTKLELK
notes: also called Mc35B11-8
